These are yes or no findings as the source states them, for the method shown. In cells and extracts the contact can be indirect.
Target: SmBiT-FBXO22-C326A (human) (UniProt Q8NEZ5)
Assay: split reporter; HEK293T co-transfected with LgBiT-FKBP12 and SmBiT-FBXO22 (WT, C228A or C326A), 1 μM carfilzomib and Vivazine, treated with SP3CHO (1 μM for the mutants) in Opti-MEM with or without FCS; luminescence up to 4 h

Chains of the proteins cited; added tags and fusions are not shown. Lines headed by an entry give the natural chain unless they say otherwise; changes in a name come on top.
UniProt Q8NEZ5: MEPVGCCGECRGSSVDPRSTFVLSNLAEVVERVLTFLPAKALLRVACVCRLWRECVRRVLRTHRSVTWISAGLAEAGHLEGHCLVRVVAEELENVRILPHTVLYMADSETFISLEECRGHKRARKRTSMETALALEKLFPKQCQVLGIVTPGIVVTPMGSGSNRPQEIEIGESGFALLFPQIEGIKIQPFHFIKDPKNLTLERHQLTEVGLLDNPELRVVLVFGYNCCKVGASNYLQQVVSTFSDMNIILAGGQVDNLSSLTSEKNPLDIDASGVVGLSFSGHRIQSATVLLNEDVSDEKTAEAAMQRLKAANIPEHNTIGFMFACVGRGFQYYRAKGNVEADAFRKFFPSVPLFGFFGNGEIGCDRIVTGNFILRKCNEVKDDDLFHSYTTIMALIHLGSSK

In the case of “LgBiT-FKBP12 (from UniProt P62942 1-108)”, the binding is reported as “no binding”.

— paper PMC11208438
